Assay results published in publication PMC11024185.
No constants are given. Whether binding was seen depends on the method and setting. In cells and extracts the contact can be indirect. A yes stands for co-enrichment or nearness to the bait. Other partners may have been found. For some of these results: Tags and fused reporters may be left off the sequences shown.

Key:
[1] = biological target: T1, Dbp10 R522V (sfGFP-3xSTREP-bdNEDD8-MYC-dbp10 R522V) (S. cerevisiae) (UniProt Q12389); test: affinity purification with mass spectrometry; split-tag purification of pre-60S particles from yeast overexpressing dbp10 R522V (β-estradiol, 1 h): IgG Sepharose on Ssf1-2xProteinA, 3C cleavage, then Strep-Tactin on Dbp10 R522V, bdNEDD8 protease elution; 50 mM Bis-Tris-Propane pH 8.0, 125 mM NaCl, 25 mM KCl, 10 mM MgCl2; Coomassie-stained 4-20% SDS-PAGE, bands named by molecular weight, ambiguous bands by mass spectrometry
T1 sequence: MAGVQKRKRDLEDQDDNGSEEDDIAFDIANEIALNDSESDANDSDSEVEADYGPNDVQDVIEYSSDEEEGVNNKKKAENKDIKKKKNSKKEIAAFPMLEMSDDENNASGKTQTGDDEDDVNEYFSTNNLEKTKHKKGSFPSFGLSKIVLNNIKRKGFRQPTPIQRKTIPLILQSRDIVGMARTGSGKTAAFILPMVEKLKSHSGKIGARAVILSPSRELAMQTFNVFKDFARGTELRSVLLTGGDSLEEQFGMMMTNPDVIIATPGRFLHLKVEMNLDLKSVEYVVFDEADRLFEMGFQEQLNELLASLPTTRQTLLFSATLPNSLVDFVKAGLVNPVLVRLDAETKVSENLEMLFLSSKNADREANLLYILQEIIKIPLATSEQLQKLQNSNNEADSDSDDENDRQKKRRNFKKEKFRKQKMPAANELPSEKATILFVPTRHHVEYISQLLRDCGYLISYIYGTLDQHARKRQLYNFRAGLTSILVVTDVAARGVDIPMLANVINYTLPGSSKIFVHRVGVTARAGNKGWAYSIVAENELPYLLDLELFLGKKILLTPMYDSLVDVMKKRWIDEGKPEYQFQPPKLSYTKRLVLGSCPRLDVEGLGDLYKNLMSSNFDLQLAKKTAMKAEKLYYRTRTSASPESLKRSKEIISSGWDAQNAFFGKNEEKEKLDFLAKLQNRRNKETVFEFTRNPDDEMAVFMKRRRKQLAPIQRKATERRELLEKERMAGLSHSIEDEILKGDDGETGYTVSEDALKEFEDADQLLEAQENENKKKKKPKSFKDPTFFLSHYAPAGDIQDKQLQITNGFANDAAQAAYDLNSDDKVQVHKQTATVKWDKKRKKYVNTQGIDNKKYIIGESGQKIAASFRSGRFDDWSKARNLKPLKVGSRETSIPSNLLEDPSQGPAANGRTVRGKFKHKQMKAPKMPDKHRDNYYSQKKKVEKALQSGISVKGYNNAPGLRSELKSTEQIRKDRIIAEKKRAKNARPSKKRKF

[2] = biological target: T2, Ssf1-3xFLAG-3C-2xProteinA (S. cerevisiae) (UniProt P38789); test: as above
T2 sequence: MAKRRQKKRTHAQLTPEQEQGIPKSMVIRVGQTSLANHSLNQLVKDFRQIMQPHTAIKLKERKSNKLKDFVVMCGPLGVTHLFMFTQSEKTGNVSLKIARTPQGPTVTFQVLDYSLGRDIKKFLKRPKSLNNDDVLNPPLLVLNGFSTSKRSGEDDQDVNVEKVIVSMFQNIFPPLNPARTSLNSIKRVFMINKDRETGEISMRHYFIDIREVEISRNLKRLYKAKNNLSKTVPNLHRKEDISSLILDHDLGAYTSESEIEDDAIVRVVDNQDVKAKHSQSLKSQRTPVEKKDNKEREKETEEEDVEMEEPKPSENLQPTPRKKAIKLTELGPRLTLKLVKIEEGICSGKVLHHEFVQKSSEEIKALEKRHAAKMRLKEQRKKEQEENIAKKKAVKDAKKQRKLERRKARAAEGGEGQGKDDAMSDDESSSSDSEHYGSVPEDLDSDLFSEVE

[3] = biological target: T3, Drs1 R569Q (3x-Strep-Drs1 R569Q) (S. cerevisiae) (UniProt P32892); test: affinity purification with mass spectrometry; purification of pre-60S intermediates from a drs1 R569Q strain by tags on Drs1 R569Q (3x-Strep) and Ssf1 (2x-ProtA); Coomassie-stained 4-20% SDS-PAGE
T3 sequence: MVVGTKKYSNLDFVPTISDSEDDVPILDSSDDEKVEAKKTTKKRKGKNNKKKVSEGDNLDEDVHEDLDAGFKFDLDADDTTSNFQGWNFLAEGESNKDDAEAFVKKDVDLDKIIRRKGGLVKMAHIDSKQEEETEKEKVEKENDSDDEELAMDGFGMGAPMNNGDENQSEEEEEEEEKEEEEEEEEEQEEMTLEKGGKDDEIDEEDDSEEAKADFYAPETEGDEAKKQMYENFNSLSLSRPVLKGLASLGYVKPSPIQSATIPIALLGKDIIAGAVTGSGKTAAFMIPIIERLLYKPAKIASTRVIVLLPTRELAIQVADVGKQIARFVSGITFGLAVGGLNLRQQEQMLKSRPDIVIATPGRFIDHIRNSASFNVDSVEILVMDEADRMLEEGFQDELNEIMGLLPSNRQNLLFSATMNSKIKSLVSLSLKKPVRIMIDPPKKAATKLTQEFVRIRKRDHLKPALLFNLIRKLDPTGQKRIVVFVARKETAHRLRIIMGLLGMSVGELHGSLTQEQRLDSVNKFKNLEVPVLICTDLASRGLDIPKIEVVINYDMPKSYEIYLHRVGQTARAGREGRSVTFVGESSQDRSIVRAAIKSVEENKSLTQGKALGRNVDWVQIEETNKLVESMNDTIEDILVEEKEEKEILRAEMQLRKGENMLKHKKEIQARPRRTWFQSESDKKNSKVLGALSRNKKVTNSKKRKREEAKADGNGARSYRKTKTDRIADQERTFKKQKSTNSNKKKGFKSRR

[4] = biological target: T2, Ssf1-3xFLAG-3C-2xProteinA (S. cerevisiae); test: as above

Measured: binding

B1: Cic1 (protein, UniProt P38779 1-376)
chain: MAKKSNSKKSTPVSTPSKEKKKVIEKKSSTAIPRERVIKAVNELIKFTSKPQDENNEEGNNGKKNLLEDDEEELKKDLQLIVVNNKSFTGTSKSFKLKLLNVKHSFYKPWKEASATAVKDFKVLLILKDSDIKKVSEDDLFDQLDSEGIKVDEIICGKDLKTVYKAYEARNAFISQFSLILADDSIVTSLPKLMGGKAYNKVETTPISIRTHANKEFSLTTLTNNIKKVYMNQLPVKLPRGTTLNVHLGNLEWLRPEEFVDNVELISEQLIKAYQIRSIFIKTNRSPVLPLYYNQDVLDELEAKKDKIEETHEDDMVTIDGVQVHLSTFNKGLMEIANPSELGSIFSKQINNAKKRSSSELEKESSESEAVKKAKS
binds: all assays above
